The target of assay [1] is Estrogen receptor alpha/estrogen receptor 1 (human (endogenous in ZR-75-1, MCF7 and patient breast tumor)) (UniProt P03372). The experiment in a line: co-IP; endogenous proteins in ZR-75-1 and MCF7 lysates (20 mM Tris pH 8.0, 150 mM NaCl, 5 mM MgCl2, 0.5% NP40); 2.5 mg precleared lysate with 6 μg antibody overnight at 4°C, protein G agarose; western blot. Background: In western blotting, separated proteins are transferred to a membrane and probed.

Amino acid sequences for entries named in this document (tags omitted).
UniProt P03372: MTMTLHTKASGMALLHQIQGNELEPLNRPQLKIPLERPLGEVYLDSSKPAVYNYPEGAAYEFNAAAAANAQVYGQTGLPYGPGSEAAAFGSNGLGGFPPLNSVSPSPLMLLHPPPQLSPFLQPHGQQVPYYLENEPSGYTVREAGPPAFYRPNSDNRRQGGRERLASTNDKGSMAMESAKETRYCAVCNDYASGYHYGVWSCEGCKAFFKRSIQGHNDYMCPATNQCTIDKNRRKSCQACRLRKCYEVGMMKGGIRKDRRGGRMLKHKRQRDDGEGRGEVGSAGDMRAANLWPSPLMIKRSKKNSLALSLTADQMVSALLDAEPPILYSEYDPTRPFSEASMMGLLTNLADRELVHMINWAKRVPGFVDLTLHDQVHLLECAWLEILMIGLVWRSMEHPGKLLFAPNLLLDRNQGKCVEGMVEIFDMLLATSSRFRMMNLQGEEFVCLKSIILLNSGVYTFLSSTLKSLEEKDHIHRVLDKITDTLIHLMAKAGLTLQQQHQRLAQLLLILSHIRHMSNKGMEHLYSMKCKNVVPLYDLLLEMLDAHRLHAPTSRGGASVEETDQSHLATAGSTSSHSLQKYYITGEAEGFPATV

Assay [2] has the same target. The experiment in a line: co-IP; endogenous proteins in lysate of a fresh frozen, treatment-naive, ERα-positive primary breast carcinoma; IP with ERα antibody, protein G agarose; western blot.

The values below come from publication PMC4941297.

These are yes or no findings as the source states them, for the method shown. Binding seen in cells or lysates may run through a third protein. Some results given as binding are weak or reduced against the parent protein; the word gives no strength.

B1: MDM4/MDMX/HDMX (protein, UniProt O15151-1 1-490)
chain: MTSFSTSAQCSTSDSACRISPGQINQVRPKLPLLKILHAAGAQGEMFTVKEVMHYLGQYIMVKQLYDQQEQHMVYCGGDLLGELLGRQSFSVKDPSPLYDMLRKNLVTLATATTDAAQTLALAQDHSMDIPSQDQLKQSAEESSTSRKRTTEDDIPTLPTSEHKCIHSREDEDLIENLAQDETSRLDLGFEEWDVAGLPWWFLGNLRSNYTPRSNGSTDLQTNQDVGTAIVSDTTDDLWFLNESVSEQLGVGIKVEAADTEQTSEEVGKVSDKKVIEVGKNDDLEDSKSLSDDTDVEVTSEDEWQCTECKKFNSPSKRYCFRCWALRKDWYSDCSKLTHSLSTSDITAIPEKENEGNDVPDCRRTISAPVVRPKDAYIKKENSKLFDPCNSVEFLDLAHSSESQETISSMGEQLDNLSEQRTDTENMEDCQNLLKPCSLCEKRPRDGNIIHGRTGHLVTCFHCARRLKKAGASCPICKKEIQLVIKVFIA
Turning to B1, the binding entry in assay [1] and in assay [2] was “binds” in each case.
